In article PMC5632675 one finds binding data, which are given here for one substance.

Chains of the proteins cited; added tags and fusions are not shown. Lines headed by an entry give the natural chain unless they say otherwise; changes in a name come on top.
UniProt Q9ERC5: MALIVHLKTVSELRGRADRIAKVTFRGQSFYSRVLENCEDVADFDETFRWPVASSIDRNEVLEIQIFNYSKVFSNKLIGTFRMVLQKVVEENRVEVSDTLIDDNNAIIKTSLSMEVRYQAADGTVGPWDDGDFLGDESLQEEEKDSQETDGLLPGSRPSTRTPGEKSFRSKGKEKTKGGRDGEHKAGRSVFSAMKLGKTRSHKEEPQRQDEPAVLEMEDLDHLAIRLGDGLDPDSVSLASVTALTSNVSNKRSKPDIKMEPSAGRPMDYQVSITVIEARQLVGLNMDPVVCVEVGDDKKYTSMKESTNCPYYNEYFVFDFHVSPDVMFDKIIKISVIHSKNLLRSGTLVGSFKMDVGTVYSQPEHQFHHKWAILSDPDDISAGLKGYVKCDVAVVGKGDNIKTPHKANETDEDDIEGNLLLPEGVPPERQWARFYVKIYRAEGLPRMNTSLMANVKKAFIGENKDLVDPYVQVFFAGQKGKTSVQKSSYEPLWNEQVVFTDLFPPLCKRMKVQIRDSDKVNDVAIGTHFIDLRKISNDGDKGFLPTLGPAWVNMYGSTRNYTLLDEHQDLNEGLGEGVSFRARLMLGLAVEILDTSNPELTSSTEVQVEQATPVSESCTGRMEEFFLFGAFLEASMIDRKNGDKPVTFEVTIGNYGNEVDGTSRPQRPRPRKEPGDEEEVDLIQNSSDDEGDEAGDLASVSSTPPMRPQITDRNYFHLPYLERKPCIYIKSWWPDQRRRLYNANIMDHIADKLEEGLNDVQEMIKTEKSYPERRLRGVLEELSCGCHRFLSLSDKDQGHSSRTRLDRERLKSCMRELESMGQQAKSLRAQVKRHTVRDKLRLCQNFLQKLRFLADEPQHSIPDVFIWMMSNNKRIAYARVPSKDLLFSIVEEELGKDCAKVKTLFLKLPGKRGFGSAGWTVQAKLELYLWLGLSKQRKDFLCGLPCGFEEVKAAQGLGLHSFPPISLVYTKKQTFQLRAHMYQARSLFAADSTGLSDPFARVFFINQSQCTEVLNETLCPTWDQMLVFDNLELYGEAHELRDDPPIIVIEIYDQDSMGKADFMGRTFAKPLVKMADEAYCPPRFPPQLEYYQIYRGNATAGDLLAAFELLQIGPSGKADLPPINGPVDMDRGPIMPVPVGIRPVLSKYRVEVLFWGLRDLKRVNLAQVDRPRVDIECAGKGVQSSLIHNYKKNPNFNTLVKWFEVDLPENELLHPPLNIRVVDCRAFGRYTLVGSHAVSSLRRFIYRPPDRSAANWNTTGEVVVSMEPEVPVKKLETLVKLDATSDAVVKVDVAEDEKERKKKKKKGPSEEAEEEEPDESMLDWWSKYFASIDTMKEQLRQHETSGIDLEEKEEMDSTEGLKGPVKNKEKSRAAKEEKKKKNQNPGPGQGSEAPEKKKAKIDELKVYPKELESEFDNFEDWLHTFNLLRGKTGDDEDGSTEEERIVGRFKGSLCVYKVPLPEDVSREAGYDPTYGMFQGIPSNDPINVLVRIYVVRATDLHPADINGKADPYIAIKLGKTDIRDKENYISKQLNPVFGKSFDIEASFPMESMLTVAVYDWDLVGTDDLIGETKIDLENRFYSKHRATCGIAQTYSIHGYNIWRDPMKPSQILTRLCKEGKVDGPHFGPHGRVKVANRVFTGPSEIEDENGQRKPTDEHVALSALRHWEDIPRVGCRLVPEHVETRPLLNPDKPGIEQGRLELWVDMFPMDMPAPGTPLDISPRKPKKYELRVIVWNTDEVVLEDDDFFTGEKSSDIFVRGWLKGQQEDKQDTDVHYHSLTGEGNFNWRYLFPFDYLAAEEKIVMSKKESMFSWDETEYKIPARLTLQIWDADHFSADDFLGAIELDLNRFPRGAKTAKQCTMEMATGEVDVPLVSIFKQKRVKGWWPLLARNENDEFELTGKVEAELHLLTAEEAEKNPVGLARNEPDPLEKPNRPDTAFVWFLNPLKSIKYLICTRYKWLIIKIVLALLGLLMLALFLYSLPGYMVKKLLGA
UniProt P15791: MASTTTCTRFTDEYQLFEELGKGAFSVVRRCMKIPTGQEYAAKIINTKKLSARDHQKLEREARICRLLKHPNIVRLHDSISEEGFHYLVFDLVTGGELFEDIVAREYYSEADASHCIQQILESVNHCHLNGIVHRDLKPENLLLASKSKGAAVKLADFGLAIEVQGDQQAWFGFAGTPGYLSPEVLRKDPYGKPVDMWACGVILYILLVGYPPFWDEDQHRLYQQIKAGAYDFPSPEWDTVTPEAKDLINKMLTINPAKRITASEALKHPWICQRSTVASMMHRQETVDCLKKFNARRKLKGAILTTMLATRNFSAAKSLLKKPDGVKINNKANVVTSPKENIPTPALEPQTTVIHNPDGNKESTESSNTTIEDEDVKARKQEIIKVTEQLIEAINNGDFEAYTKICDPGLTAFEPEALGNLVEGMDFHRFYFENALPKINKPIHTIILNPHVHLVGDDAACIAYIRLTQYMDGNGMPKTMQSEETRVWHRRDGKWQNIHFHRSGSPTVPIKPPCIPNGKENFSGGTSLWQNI

Results are given in words; binding and its absence hold for the method and conditions named. In cells and extracts the contact can be indirect. Some results given as binding are weak or reduced against the parent protein; the word gives no strength.

The assay concerns the target otoferlin (rat inner hair cells) (rat (endogenous in rat organ of Corti)) (UniProt Q9ERC5). Briefly: proximity ligation; Duolink PLA on fixed, permeabilised P9-P11 rat organ of Corti explants; mouse anti-otoferlin antibody with a rabbit antibody to the partner; detects <40 nm proximity; controls with one primary antibody only.

Regarding “Ca2+/calmodulin-dependent serine/threonine kinase II delta (CaMKIIδ), rat inner hair cells (from UniProt P15791 1-533) (enzyme)”, the binding entry was “binds”.
